Values from PubChem BioAssay AID1259254 (NCATS, 2017)

Screen: 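Genome-wide screen for genes that prevent DNA re-replication in cancer cells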 (primary screen)
Cells: human HCT116 colorectal cancer cells
Knock-down reagent: single siRNA against human genes
Timing: 3 days
Read-out: 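Imaged Hoechst DNA stain sorts each cell into a cycle phase by DNA amount; per plate, G2 fraction set to 0% for non-targeting and 100% for GMNN siRNA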
Reading the numbers: G2 robust z-score: higher = more G2 cells, more excess DNA replication
Active means: 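An siRNA counts as active if its G2 robust z-score lies at least 5 MADs above the screen median; here such calls match roughly 38% of GMNN control or more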
This is one part, drawn at random, of about 59,000 reagents. About 1,550 of them (2.6%) count as active. 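G2 share is only a proxy for re-replication; each gene was hit by three separate siRNAs, and active genes were retested.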 Further read-outs or replicates are left out here. Reagent sequences are not shown. The record does not give: the amount of reagent.

| target gene | PubChem SID | G2 robust z-score | activity call |
| --- | --- | --- | --- |
| ZC3H4 (zinc finger CCCH-type containing 4) | SID160735723 | -0.0287 | inactive |
| ZC3H4 (zinc finger CCCH-type containing 4) | SID160735724 | 0.821 | inactive |
| ZC3H4 (zinc finger CCCH-type containing 4) | SID160735725 | -0.238 | inactive |
| GLYCTK (glycerate kinase) | SID160757134 | 0.376 | inactive |
| GLYCTK (glycerate kinase) | SID160757135 | -0.72 | inactive |
| GLYCTK (glycerate kinase) | SID160757136 | -0.87 | inactive |
| ZNF890P (zinc finger protein 890, pseudogene) | SID160725472 | 2.14 | inactive |
| ZNF890P (zinc finger protein 890, pseudogene) | SID160725473 | 2.55 | inactive |
| ZNF890P (zinc finger protein 890, pseudogene) | SID160725474 | 0.336 | inactive |
| ZNF224 (zinc finger protein 224) | SID160719301 | -0.87 | inactive |
| ZNF224 (zinc finger protein 224) | SID160719302 | -0.748 | inactive |
| ZNF224 (zinc finger protein 224) | SID160719303 | 0.0505 | inactive |
| PFDN1 (prefoldin subunit 1) | SID160714140 | 1.41 | inactive |
| PFDN1 (prefoldin subunit 1) | SID160714141 | -0.984 | inactive |
| PFDN1 (prefoldin subunit 1) | SID160731409 | -0.0417 | inactive |
| OVOL2 (ovo like zinc finger 2) | SID160746848 | 0.812 | inactive |
| OVOL2 (ovo like zinc finger 2) | SID160746849 | -0.694 | inactive |
| OVOL2 (ovo like zinc finger 2) | SID160746851 | -0.166 | inactive |
| NELL2 (neural EGFL like 2) | SID160777962 | -0.4 | inactive |
| NELL2 (neural EGFL like 2) | SID160777963 | 1.55 | inactive |
| NELL2 (neural EGFL like 2) | SID160777965 | -1.14 | inactive |
| PLAUR (plasminogen activator, urokinase receptor) | SID160714433 | -0.108 | inactive |
| PLAUR (plasminogen activator, urokinase receptor) | SID160714434 | 1.17 | inactive |
| PLAUR (plasminogen activator, urokinase receptor) | SID160714435 | 1.59 | inactive |
| MPP1 (MAGUK p55 scaffold protein 1) | SID160777429 | -1.17 | inactive |
| MPP1 (MAGUK p55 scaffold protein 1) | SID160777430 | 0.521 | inactive |
| MPP1 (MAGUK p55 scaffold protein 1) | SID160777431 | -0.79 | inactive |
| TMSB15B (thymosin beta 15B) | SID160763871 | 0.646 | inactive |
| TMSB15B (thymosin beta 15B) | SID160763872 | 0.967 | inactive |
| TMSB15B (thymosin beta 15B) | SID160763873 | 0.341 | inactive |
| SLC60A1 | SID160758738 | 0.119 | inactive |
| SLC60A1 | SID160758739 | -1.08 | inactive |
| SLC60A1 | SID160758740 | 0.307 | inactive |
| PCDHB10 (protocadherin beta 10) | SID160744820 | -0.518 | inactive |
| PCDHB10 (protocadherin beta 10) | SID160744821 | 1.19 | inactive |
| PCDHB10 (protocadherin beta 10) | SID160744822 | -0.682 | inactive |
| SACM1L (SAC1 like phosphatidylinositide phosphatase) | SID160733237 | -0.27 | inactive |
| SACM1L (SAC1 like phosphatidylinositide phosphatase) | SID160733247 | -0.0665 | inactive |
| SACM1L (SAC1 like phosphatidylinositide phosphatase) | SID160733258 | -0.431 | inactive |
| RP9 (RP9 pre-mRNA splicing factor) | SID160715995 | -0.012 | inactive |
| RP9 (RP9 pre-mRNA splicing factor) | SID160715996 | -0.939 | inactive |
| RP9 (RP9 pre-mRNA splicing factor) | SID160733703 | -0.389 | inactive |
| SNRPG (small nuclear ribonucleoprotein polypeptide G) | SID160717143 | 0.101 | inactive |
| SNRPG (small nuclear ribonucleoprotein polypeptide G) | SID160717144 | 3.62 | inactive |
| SNRPG (small nuclear ribonucleoprotein polypeptide G) | SID160717145 | 2.08 | inactive |
| SFXN4 (sideroflexin 4) | SID160755722 | -1.3 | inactive |
| SFXN4 (sideroflexin 4) | SID160755723 | -0.439 | inactive |
| SFXN4 (sideroflexin 4) | SID160755724 | 6.52 | active |

In a second layout: entries from further up.
{"target gene": "TMSB15B (thymosin beta 15B)", "PubChem SID": "SID160763871", "G2 robust z-score": 0.646, "activity call": "inactive"}
{"target gene": "TMSB15B (thymosin beta 15B)", "PubChem SID": "SID160763872", "G2 robust z-score": 0.967, "activity call": "inactive"}
{"target gene": "TMSB15B (thymosin beta 15B)", "PubChem SID": "SID160763873", "G2 robust z-score": 0.341, "activity call": "inactive"}
{"target gene": "SLC60A1", "PubChem SID": "SID160758738", "G2 robust z-score": 0.119, "activity call": "inactive"}
{"target gene": "SLC60A1", "PubChem SID": "SID160758739", "G2 robust z-score": -1.08, "activity call": "inactive"}
